## Percent effect of library compounds

Sequences of proteins named here, by UniProt entry; tags and fusion partners are left off. Residues count along the entry.
UniProt A4I591, 1-473: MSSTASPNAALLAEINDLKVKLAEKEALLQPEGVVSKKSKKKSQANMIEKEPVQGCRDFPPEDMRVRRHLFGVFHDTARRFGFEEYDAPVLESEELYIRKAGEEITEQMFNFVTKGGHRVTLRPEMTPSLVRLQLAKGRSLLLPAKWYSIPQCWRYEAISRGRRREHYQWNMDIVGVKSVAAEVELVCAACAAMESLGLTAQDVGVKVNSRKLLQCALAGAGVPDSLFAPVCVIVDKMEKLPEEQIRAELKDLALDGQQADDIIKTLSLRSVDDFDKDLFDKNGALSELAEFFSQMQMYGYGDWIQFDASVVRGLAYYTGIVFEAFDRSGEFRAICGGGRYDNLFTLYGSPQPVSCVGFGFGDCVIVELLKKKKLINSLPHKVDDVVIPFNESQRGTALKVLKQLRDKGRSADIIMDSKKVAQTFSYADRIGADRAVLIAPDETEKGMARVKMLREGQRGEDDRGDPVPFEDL

Measurements from “University of Dundee, Small-Polar-MMV Screening Library” (2021), ChEMBL document CHEMBL3988442.

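Histidine-tRNA ligase, Leishmania infantum (UniProt A4I591). Enzyme assay of histidyl-tRNA synthetase; the read-out is not stated. Tested at 30 µM. Direction is inferred from retests: higher values go with stronger inhibition. The assay is labelled LdHisRS but filed under L. infantum. About 69,000 compounds were tested under these conditions; 0.6% (about 410) showed 50% or more at least once.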

The filed quantity is “Percent Effect” (%).
The controls that fix the scale are not given in the record; negative values are as filed.
Compounds were drawn at random from those tested, without regard to their results.

compound | percent effect
O=C1CCN(C(=O)NCc2ccccc2Oc2ccccc2)CCN1 | 6.25
CC(c1ccc(Cl)cc1)N1CCN(CCCS(C)(=O)=O)CC1 (stereo not shown) | 8.065
CCc1nc(C)c([C@H]2CN(C)C[C@@H]2C(=O)Nc2ccc(OC)nc2)[nH]1 | 15.15
CC(C)Oc1ccc(C(=O)N2CCCCC2Cn2cccn2)cn1 (stereo not shown) | 6.481
Cc1cc(CN2CCN(S(=O)(=O)c3c(C)c(Cl)cc(C)c3Cl)CC2)on1 | 30.12
Cc1ccc(NC2CCN(C(=O)c3cc[nH]n3)CC2)nn1 | -4
N[C@@H]1c2ccccc2C2(CCN(C(=O)c3ccc(Cl)cn3)CC2)[C@H]1O | 15.09
Cc1ccc2c(n1)N(Cc1cccnc1)CCN(C(=O)C1CC=CC1)C2 | 11.11
CCc1cc(CNC(=O)Nc2cc(F)cc(N3CCCC3)c2)on1 | 14.4
NC(=O)[C@@H]1CCCN1C(=O)c1cn(C/C=C/c2ccccc2)nn1 | 23.08
CC(C)OC(=O)N1CCCC(c2nccn2Cc2ccncc2)C1 (stereo not shown) | 9.677
CO[C@@H]1CCN(Cc2ccoc2)[C@H]1Cc1ccccc1 | 11.54
O=C(NCC(O)c1ccc(F)cc1F)c1ccccc1F (stereo not shown) | 19.44
O=C(NCc1ccccn1)[C@]12COC[C@H]1CN(C1CCC1)C2 | 15.09
CC(=O)N1CCC(N2CCOC[C@H]2c2nc(-c3ccc(Cl)s3)c[nH]2)CC1 | 14.86
CS(=O)(=O)N1CCN(Cc2csc(-c3ncccn3)n2)CC1 | 15.18
CC(C)N1CCC(N(C)c2ccnc(N(C)C)n2)CC1 | 6.667
CCc1cnc(CNc2ccc(C(=O)N3CCCC(C)C3)cc2C)o1 (stereo not shown) | 8.219
NS(=O)(=O)c1cccnc1NCc1ccco1 | 14.94
O=C(NCc1noc(C2CCCO2)n1)c1cn2ccsc2n1 (stereo not shown) | 13.11
Cc1cccc(C(=O)N2CC[C@]3(C[C@H](OCc4ccccn4)CO3)C2)c1 | 16
Cc1nnc([C@H]2CC[C@@H]3[C@@H](CCN3CC3CCOCC3)O2)o1 | 2.632
Cc1cnn(CC(=O)N2CCC3(CCC(=O)N(C4CCCC4)C3)CC2)c1 | 11.83
CC(C)NC(=O)C1(Cc2ccccc2-c2ccccc2)CCCNC1 (stereo not shown) | 8.392
CC(=O)NCCn1ccc(-c2ccccn2)n1 | 2.74
COc1ccccc1OCCN1CCCCC1Cn1cncn1 (stereo not shown) | 13.16
FC(F)(F)COCCN1CCOC(Cn2cccn2)C1 (stereo not shown) | 11.3
CC(C)C1CCCN1CC(=O)NCc1ccc(OCC(N)=O)cc1 (stereo not shown) | 15.04
Cc1nc(NCC2CC2)nc2c1COCC21CCN(C)C1 (stereo not shown) | 16.79
Cc1noc(C)c1CN1CCc2c(CNc3nccs3)n[nH]c2C1 | 35.9
Cc1cc(C)n(CC2CCCN2C(=O)c2cnc3n[nH]c(C)c3c2)n1 (stereo not shown) | 8.547
COCCCN(CCOC)C(=O)Nc1ccc(Br)cc1 | 13.48
Cc1cc(CN2CC[C@H]3C[C@H](c4nccs4)O[C@@H]3C2)no1 | 0
CC(C)N(C)Cc1cnc2n1CCN(Cc1ccco1)C2 | 15.07
Cc1cc(C(=O)NCc2cccnc2N2CCc3ccccc3C2)[nH]n1 | 21.43
CN(Cc1ccco1)[C@@H]1CN(Cc2ccncc2)C[C@@H]2CCCO[C@@H]21 | 12.73
NS(=O)(=O)CCNC(=O)CCc1cc(Br)cs1 | 21.92
Cc1cc(C)c2c(c1)C(NCc1c(C)nn(C)c1N(C)C)CCO2 (stereo not shown) | 17.86
CN1CCN(Cc2ccc(-c3ccc(-c4ccn[nH]4)cc3)nc2)CC1 | 2.597
NC(=O)CC1CCN(c2ncnc3cccc(F)c23)CC1 | 6.667
O=C(Cc1ccsc1)N1CCn2cc(Cn3cncn3)nc2C1 | 8.772
CCN(CC)CCN1CCO[C@H]2[C@@H](OCc3ccccn3)CC[C@@H]21 | 13.89
O=C(CCc1ccsc1)N1CCCC(n2cncn2)C1 (stereo not shown) | -1.786
O=C(COc1ccc(Cl)cc1)NCc1nncn1C1CC1 | 12.4
COc1ccc2c(c1OC)Cc1c-2nc(N)c(C#N)c1C1CCOC1 (stereo not shown) | 20.48
CC(C)N(CCNc1nc(C2CCCC2)nc2c1cnn2C)C(C)C | 14.52
c1csc(-c2cc(CN3CCN(c4cnccn4)CC3)no2)c1 | 13.22
O=C(NCC1Cn2nnc(-c3ccsc3)c2CO1)c1ccc[nH]1 (stereo not shown) | -574.5
Cc1nccc(CNC(=O)NCCOc2ccc(F)c(F)c2)n1 | 11.54
CCc1nc(NC(=O)Cc2csc(-c3nnc[nH]3)n2)sc1C | 22.22
Cc1cc(NCCNS(C)(=O)=O)nc2cc3c(cc12)CCC3 | 6.25
CC(=O)Nc1nc(C2CCN(C(=O)c3ccncc3)CC2)cs1 | 10.31
CC(NCc1ccccc1O)c1ccc(-n2ccnc2)cc1 (stereo not shown) | 14.89
CCN(Cc1ccc(O)c(C(=O)O)c1)CC1CCCO1 (stereo not shown) | 16.39
Cc1cc(N[C@H](CO)c2ccccc2)n2nc(C)cc2n1 | 9.167
Cc1ccccc1OC1CCN(C(=O)c2c[nH]c(=O)[nH]c2=O)CC1 | 9.333
Cn1nccc1NCc1cc2cc(F)ccc2o1 | 3.297
CC(C)N1CCOCC2(CCCN(C(=O)c3cn(C)cn3)C2)C1 (stereo not shown) | 8.571
Cc1nnc(C(C)N2CCCN(Cc3noc(C4CC4)n3)CC2)o1 (stereo not shown) | 11.11
N#CCCCOc1cccnc1NC(=O)CCC1CCCC1 | 16.05
O=C(CO)N1C[C@H]2CC[C@@H]1CN(C1Cc3ccccc3C1)C2 | 30.19
Cc1ccc(Cl)c2ccc(NC(CO)CO)nc12 | 8.824
COc1cc(N2C[C@H]3CN(C(=O)c4cccnc4)C[C@H]3C2)ncn1 | 14.04
Cc1ccc(OCC(=O)N2CCN[C@H]3CS(=O)(=O)C[C@H]32)cn1 | 13.11
CCOCCN1CCN(c2ncccc2C#N)CC1CC (stereo not shown) | -3.529
CCCOCCN1CCN(c2ncnc3[nH]ccc23)CC1 | 7.792
Cc1nn(CC(=O)N2CCN(Cc3cnn(C)c3C)CC2)cc1Br | -34.07

Repeated from the top, 7 entries:

| compound | percent effect |
|---|---|
| `O=C1CCN(C(=O)NCc2ccccc2Oc2ccccc2)CCN1` | 6.25 |
| `CC(c1ccc(Cl)cc1)N1CCN(CCCS(C)(=O)=O)CC1` (stereo not shown) | 8.065 |
| `CCc1nc(C)c([C@H]2CN(C)C[C@@H]2C(=O)Nc2ccc(OC)nc2)[nH]1` | 15.15 |
| `CC(C)Oc1ccc(C(=O)N2CCCCC2Cn2cccn2)cn1` (stereo not shown) | 6.481 |
| `Cc1cc(CN2CCN(S(=O)(=O)c3c(C)c(Cl)cc(C)c3Cl)CC2)on1` | 30.12 |
| `Cc1ccc(NC2CCN(C(=O)c3cc[nH]n3)CC2)nn1` | -4 |
| `N[C@@H]1c2ccccc2C2(CCN(C(=O)c3ccc(Cl)cn3)CC2)[C@H]1O` | 15.09 |